# Reference: patent publication US7166691B2, “Saposin C and receptors as targets for treatment of benign and malignant disorders” (priority 2002, dated 2007)
# Some results were stated once for a whole list of compounds, not compound by compound.
# How the values were obtained:
# Assay type in all cases: cell-based, human
# LNCaP cells [1] = assay: Protection from NaSe-induced cell death (trypan blue exclusion); conditions: NaSe 10 μM, 48 h
# p90RSK = assay: Phospho-specific Western, p90RSK; conditions: densitometry
# Description: Cells were grown to 80% confluency by incubating in their respective serum-free basal media for 18 h. For each cell line, tissue culture plates were pre-treated with a specific MEK1/2 inhibitor (U0126, Cat.# 9903, Cell Signaling Technology, Beverly, Mass.) at 10 μM for 1.5 h. Saposin C and TX14A were added at the following concentrations: 0.1, 1.0, and 10 nM. The cells were then incubated at 37° C. for 5 min, washed, and lysed on ice in RIPA buffer supplemented with protease inhibitors and 1 mM sodium orthovandate, as described in S. Koochekpour et al., 1999. Clarified cell lysates were subjected to Western analysis using phospho-specific antibodies against three enzymes in the MAPK Pathway: MEK1/2 (Ser217/22; Cat.# 9121; Cell Signaling Technology, Beverly, Mass.); p90RSK (p90^rsk, Ser380, Cat# 9341, Cell Signaling Technology); and p42/44 MAP Kinases (p44^MAPK, p42^MAPK; Thr202/Tyr204, Cat# 9102; Cell Signaling Technology). Primary antibodies against p42/44 MAP kinase (Cell Signaling Technology) or against tubulin (Cat# 12463, Santa Cruz Biotechnology, Santa Cruz, Calif.) were used as controls. To quantify the difference between the control and the various treatments, the autoradiograms were read on a densitometer, an Alpha Imager 2000 (Alpha Innotech Corp., San Leandro, Calif.).
# LNCaP cells [2] = assay: Cell proliferation (living cells, trypan blue exclusion); conditions: 0.1, 1.0, 10 nM, 2 days
# DU-145 cells = assay: as above; conditions: 0.1, 1.0, 10 nM, 2 days
# [3] = system: normal prostate stromal cells; assay: as above; conditions: 0.1, 1.0, 10 nM, 2 days
# PC-3 cells = assay: as above; conditions: 0.1, 1.0, 10 nM, 2 days
molecule,measurement,setting,value
"saposin C: Human saposin C, about 8–13 kDa protein proteolytically generated from prosaposin; obtained from Professor K. Sandoff (protein, UniProt P07602 311-390, looked up, Saposin-C, Human saposin C, about 8–13 kDa protein proteolytically generated from prosaposin; obtained from Professor K. Sandoff) Saposin-C: SDVYCEVCEFLVKEVTKLIDNNKTEKEILDAFDKMCSKLPKSLSEECQEVVDTYGSSILSILLEEVSPELVCSMLHLCSG",protective effect on cell death,LNCaP cells [1],5–10%
same,increase in the level of phosphorylation for p90RSK proteins,p90RSK; PC-3 cells,1 to 5 fold
same,increase in the level of phosphorylation for p90RSK proteins,p90RSK; stromal cells,1 to 5 fold
same,"amount of proliferation, percent of the control values",LNCaP cells [2],15–32%
same,"amount of proliferation, percent of the control values",DU-145 cells,35–47%
same,"amount of proliferation, percent of the control values",[3],17–69%
same,"amount of proliferation, percent of the control values",PC-3 cells,20–53%
